In the experiment the test system is Lymphoma 4 ip in BDF1 mice, median survival. The experiment can be described thus: NCI In Vivo Anticancer Drug Screen. Data for tumor model Lymphoma 4 (intraperitoneal) in B6D2F1 (BDF1) mice. Conditions: T/C endpoint: median survival time, higher T/C = longer survival. Here is the method: The antitumor activity of compounds was measured in mice bearing transplantable tumors. Survival or tumor size were measured and the results are expressed as the measurement made in the treated group (T) divided by the measurement made in the vehicle treated control group (C). The tumor model used in this assay is Lymphoma 4 (intraperitoneal) in B6D2F1 (BDF1) mice

Setting [1] is: dose: 1.0 mg/kg/injection, schedule: Q01DX010 (ip), vehicle: other.
Where [2] appears, read: dose: 2.0 mg/kg/injection, schedule: Q01DX010 (ip), vehicle: other.
Setting [3] is: dose: 4.0 mg/kg/injection, schedule: Q01DX010 (ip), vehicle: other.
[4] abbreviates: dose: 8.0 mg/kg/injection, schedule: Q01DX010 (ip), vehicle: other.
Where [5] appears, read: dose: 2.5 mg/kg/injection, schedule: Q01DX010 (ip), vehicle: saline.
Where [6] appears, read: dose: 5.0 mg/kg/injection, schedule: Q01DX010 (ip), vehicle: saline.
The mark [7] stands for this setting: dose: 10.0 mg/kg/injection, schedule: Q01DX010 (ip), vehicle: saline.
The mark [8] stands for this setting: dose: 20.0 mg/kg/injection, schedule: Q01DX010 (ip), vehicle: saline.
[9] abbreviates: dose: 125.0 mg/kg/injection, schedule: Q01DX010 (ip), vehicle: saline.
The mark [10] stands for this setting: dose: 40.0 mg/kg/injection, schedule: Q01DX010 (ip), vehicle: saline.
[11] abbreviates: dose: 80.0 mg/kg/injection, schedule: Q01DX010 (ip), vehicle: saline.
[12] abbreviates: dose: 16.0 mg/kg/injection, schedule: Q01DX010 (ip), vehicle: other.
Setting [13] is: dose: 32.0 mg/kg/injection, schedule: Q01DX010 (ip), vehicle: other.
The mark [14] stands for this setting: dose: 62.5 mg/kg/injection, schedule: Q01DX010 (ip), vehicle: saline.

The list is a part of this screen's results and no random one: it gathers tests that were run many times, whatever their T/C, doses with no T/C, and many T/C values between a quarter and a half above the control. Further doses and runs are listed elsewhere. T/C gives the treated animals as a percentage of the vehicle group. Some entries give survivors of the animals treated and no T/C: the source files T/C as zero there, which appears to mark a toxic dose or a test without result, not a measured value. Some doses without a T/C left all or most animals alive at the check, yet need not have been tolerated: the source hardly ever lists a survival T/C far under the control, and the zero likely stands for such cases as well. Counts of survivors are from the toxicity check (mostly the fifth day) where no day follows; animals may have died later. Schedule codes are those of the source, taken here to give the interval after Q, in days (D) or hours (H), and the number of doses after X. Some entries hold several experiments; their values stand side by side, smallest first. For survival time, the PubChem record calls one and a half times the control and up active, and a quarter to a half above the control has no call in these data; cut-offs in other NCI protocols can differ. Some T/C values are followed by the survivors on the day toxicity was checked, most often the fifth; without a count, all were alive then. Additions like (4×) count equal records among those shown.

As to `O=C(Nc1ccc(C2=NCCCN2)cc1)c1ccc(C(=O)Nc2ccc(C3=NCCCN3)cc2)cc1`, the T/C was 105, 106, 109 [5 of 6 alive], 113 % of control (dose: 0.5 mg/kg/injection, schedule: Q01DX010 (ip), vehicle: other); 123, 126, 128, 134 % of control under setting [1]; 171, 180, 181 [5 of 6 alive], 197 % of control under setting [2]; 106, 182, 246 % of control under setting [3]. The survivor count reads like this: under setting [3], 6 of 6; under setting [4], 5 of 6 and 6 of 6.

`CN(C)c1ccc(/C=C/c2ccnc3ccccc23)cc1`: under “dose: 32.0 mg/kg/injection, schedule: Q01DX010 (ip), vehicle: saline”, the T/C is 89, 90 [5 of 6 alive], 92, 100 % of control. In addition, the survivor count was 6 of 6 (dose: 64.0 mg/kg/injection, schedule: Q01DX010 (ip), vehicle: saline); 6 of 6 (dose: 128.0 mg/kg/injection, schedule: Q01DX010 (ip), vehicle: saline); 0 of 6 and 3 of 6 (dose: 256.0 mg/kg/injection, schedule: Q01DX010 (ip), vehicle: saline).

Turning to `NC(Cc1ccc(N(CCCl)CCCl)cc1)C(=O)O` (stereo not drawn), the T/C runs as follows: under setting [5], 126 % of control; under setting [6], 135 % of control. The survivor count was 6 of 6 under setting [7] and 5 of 6 under setting [8].

Regarding `CCCCNc1ncnc2c1cnn2C`, the survivor count under setting [9] is 6 of 6.

As for `COc1cc(-c2ccc(Nc3ccccc3C(=O)O)c(OC)c2)ccc1Nc1ccccc1C(=O)O`, the T/C (dose: 100.0 mg/kg/injection, schedule: Q01DX010 (ip), vehicle: saline) is 126 % of control.

As for `O=c1[nH]c(=O)n(C2CC(O)C(CO)O2)cc1F` (stereo not drawn), the T/C is 132 % of control under setting [10] and 129 % of control under setting [11]. For the same compound, the survivor count was 6 of 6 under setting [11] and 6 of 6 (dose: 160.0 mg/kg/injection, schedule: Q01DX010 (ip), vehicle: saline).

As for `C[C@]12C=CC(=O)C=C1CC[C@@H]1[C@@H]2[C@@H](O)C[C@@]2(C)[C@H]1CC[C@]2(O)C(=O)CO`, the T/C was 125 % of control (dose: 12.5 mg/kg/injection, schedule: Q01DX010 (sc), vehicle: steroid suspending solution); 125 % of control (dose: 25.0 mg/kg/injection, schedule: Q01DX010 (sc), vehicle: steroid suspending solution); 125 % of control (dose: 50.0 mg/kg/injection, schedule: Q01DX010 (sc), vehicle: steroid suspending solution); 128 % of control (dose: 100.0 mg/kg/injection, schedule: Q01DX010 (sc), vehicle: steroid suspending solution).

For `O=C(O)CCCc1ccc(N(CCCl)CCCl)cc1`, the survivor count is 6 of 6 (dose: 12.5 mg/kg/injection, schedule: Q01DX010 (ip), vehicle: saline); 0 of 6 and 4 of 6 (dose: 25.0 mg/kg/injection, schedule: Q01DX010 (ip), vehicle: saline).

Turning to `O=C(Nc1ccc(C2=NCCN2)cc1)c1ccc(C(=O)Nc2ccc(C3=NCCN3)cc2)c(Cl)c1`, the T/C was 103 [5 of 6 alive], 108, 115, 116 % of control under setting [2]; 118, 126 (2×), 128 % of control under setting [3]; 160, 175, 178, 185 % of control under setting [4]; 246, 256, 300, 326 % of control under setting [12]; 90 [5 of 6 alive] and 103 % of control under setting [13]. Moreover, the survivor count under setting [13] was 3 of 6 and 5 of 6.

With `CS(=O)(=O)OCCN(CCOS(C)(=O)=O)c1ccc(N=O)cc1`, the T/C by setting is: (dose: 0.25 mg/kg/injection, schedule: Q01DX010 (ip), vehicle: saline) 138 % of control; (dose: 1.0 mg/kg/injection, schedule: Q01DX010 (ip), vehicle: saline) 126 % of control. Besides, the survivor count by setting is: (dose: 2.0 mg/kg/injection, schedule: Q01DX010 (ip), vehicle: saline) 6 of 6; (dose: 4.0 mg/kg/injection, schedule: Q01DX010 (ip), vehicle: saline) 4 of 6; (dose: 8.0 mg/kg/injection, schedule: Q01DX010 (ip), vehicle: saline) 0 of 6; (dose: 16.0 mg/kg/injection, schedule: Q01DX010 (ip), vehicle: saline) 0 of 6.

With `O=c1cnn(C2OC(CO)C(O)C2O)c(=O)[nH]1` (stereo not drawn), where the note is “dose: 1600.0 mg/kg/injection, schedule: Q01DX010 (ip), vehicle: saline”, the survivor count is given as 6 of 6.

`CCOC(=O)c1[nH]c2ccccc2c1CN(CCCl)CCCl`: the T/C under setting [8] was 140 % of control. Also, the survivor count is recorded as 6 of 6 under setting [10] and 0 of 6 under setting [11].

With `CCOC(N)=O`, the survivor count is 6 of 6 (dose: 500.0 mg/kg/injection, schedule: Q01DX010 (ip), vehicle: saline); 4 of 6 and 6 of 6 (dose: 1000.0 mg/kg/injection, schedule: Q01DX010 (ip), vehicle: saline).

Consider `Cc1cc(N(CCCl)CCCl)ccc1N=Nc1ccccc1C(=O)O`, for which the T/C is 126 and 135 % of control under setting [6]; 146 % of control under setting [7]. For the same compound, under setting [10], the survivor count is 5 of 6 and 6 of 6.

Regarding `CCn1cnc2c(=S)nc[nH]c21`, the survivor count is 6 of 6 (dose: 31.3 mg/kg/injection, schedule: Q01DX010 (ip), vehicle: saline); 6 of 6 under setting [14]; 6 of 6 under setting [9].

Take `CC(=O)NC1=C(N2CC2)C(=O)C(NC(C)=O)=C(N2CC2)C1=O`: for the setting “dose: 0.5 mg/kg/injection, schedule: Q01DX010 (ip), vehicle: saline”, the T/C is 142 % of control.

For `O=C(Nc1ccc(C2=NCCCN2)cc1)c1ccc(NC(=O)c2ccc(C3=NCCCN3)cc2)cc1`, the T/C runs as follows: under setting [1], 103, 105, 106 [5 of 6 alive], 120 % of control; under setting [2], 112, 120, 129, 143 % of control; under setting [3], 170, 184, 209, 235 % of control; under setting [4], 100, 115, 126, 140 % of control. For the same compound, the survivor count under setting [12] was 5 of 6 and 6 of 6.

Turning to `N#CCSc1ncnc2nc[nH]c12`, the survivor count (dose: 120.0 mg/kg/injection, schedule: Q01DX010 (ip), vehicle: saline) is listed as 6 of 6.

Turning to `O=c1[nH]cc(F)c(=O)[nH]1`, under setting [6], the T/C was 144 % of control. Moreover, the survivor count under setting [10] is given as 6 of 6.

Turning to `Oc1cc(CN(CCCl)CCCl)c(O)cc1CN(CCCl)CCCl`, under setting [5], the T/C is 130 [4 of 6 alive] and 140 % of control [5 of 6 alive]. Further, the survivor count under setting [6] was 4 of 6 and 6 of 6.

Regarding `CCCSc1ncnc2nc[nH]c12`, the survivor count under setting [14] is 5 of 6 and 6 of 6; the survivor count (dose: 250.0 mg/kg/injection, schedule: Q01DX010 (ip), vehicle: saline) was 4 of 6 and 5 of 6.

On to `Nc1nc(=S)c2[nH]cnc2[nH]1`, for which the survivor count is, setting by setting: (dose: 1.25 mg/kg/injection, schedule: Q01DX010 (ip), vehicle: other) 6 of 6; (dose: 2.5 mg/kg/injection, schedule: Q01DX010 (ip), vehicle: other) 6 of 6; (dose: 5.0 mg/kg/injection, schedule: Q01DX010 (ip), vehicle: other) 6 of 6; under setting [6], 6 of 6; (dose: 10.0 mg/kg/injection, schedule: Q01DX010 (ip), vehicle: other) 5 of 6 and 6 of 6; under setting [7], 5 of 6 and 6 of 6.

Turning to `Nc1nc2n[nH]nc2c(=O)[nH]1`, the T/C (dose: 25.0 mg/kg/injection, schedule: Q01DX010 (ip), vehicle: alkali diluted with saline) is 132 % of control; the T/C (dose: 50.0 mg/kg/injection, schedule: Q01DX010 (ip), vehicle: alkali diluted with saline) was 125 % of control; the T/C (dose: 100.0 mg/kg/injection, schedule: Q01DX010 (ip), vehicle: alkali diluted with saline) is 142 and 143 % of control; the T/C (dose: 200.0 mg/kg/injection, schedule: Q01DX010 (ip), vehicle: alkali diluted with saline) is 132 % of control.
